Experimental data reported in patent EP4285989A1 (priority 2021, dated 2022).
Some results come without the dose or concentration used.

Test system: Clostridium butyricum M-II588
Type: cell-based
Conditions: 1 w/v% carbohydrate, butyric acid bacterium culture, anaerobic, 37°C; mean ± standard error of three samples

| Compound | pH After culture for 20 hours |
| --- | --- |
| α-cyclodextrin [α-CD] | 4.7±0.0 |
| OC[C@H]1O[C@@H](O[C@H]2[C@H](O)[C@@H](O)[C@@H](O[C@]3(CO)O[C@H](CO)[C@@H](O)[C@@H]3O)O[C@@H]2CO)[C@H](O)[C@@H](O)[C@H]1O [LS, Lactosucrose, reference compound] | 6.3±0.1 |
